Experimental data reported in PubChem BioAssay AID1487 (National Center for Advancing Translational Sciences (NCATS), 2009).
“And” between values parts separate entries of the source, which are not always exact repeats. Equal entries are not always repeated. Some of the results follow. These are further read-outs of the screen, such as a control signal, another cell line or another target. No call is given for them. Compounds called inactive in the main read-out are mostly missing here. Words in brackets tell the shape of the fitted curve; partial curves, single points and poor fits give uncertain potencies.

Test: qHTS Assay for Modulators of Lamin A Splicing
Settings: HeLa LMNA splicing GFP/RFP minigene ratio, 48 h
Procedure, shortened: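 S3 HeLa stable clones carrying a lamin A-EGFP splicing minigene plus DsRed2 were seeded at 600 cells/well in Opti-MEM with 2% FBS, pin-dosed and incubated 48 h at 37°C. Acumen cytometry (488 nm) gave the GFP/RFP total-intensity ratio.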

[1] = measured here: GFP splicing reporter channel
[2] = measured here: RFP viability control channel

Structure (SMILES)	AC50 [1]	AC50 [2]
Cc1cccc(CNc2ncnc3ccc(-c4cccc(C#N)c4)cc23)c1	35.5 µM [falling, single point]	25.1 µM [falling, partial curve]
Cn1cc(Br)c(C(=O)NN2C(=O)C3C(C2=O)C2C=CC3C23CC3)n1 (configuration not stated)	–	20 µM [falling, single point]
O=C(NCCO)/C(=C\c1ccc2c(c1)OCO2)NC(=O)c1ccc(Br)cc1	–	1.58 µM [rising, partial curve]
COC(=O)c1ccc(Sc2ccc(Cl)cc2)c(N)c1	12.6 µM [rising, single point]	17.8 µM [rising, single point]
CCOc1ncccc1C(=O)Nc1cccc(-c2nnc3n2CCCCC3)c1	35.5 µM [falling, single point]	–
Cc1ccc(-n2ncc3c(N(C)C)ncnc32)cc1Cl	–	0.178 µM [falling, full curve, poor fit]
Cc1cccc2sc(NNC(=O)c3cc(-c4cccs4)nc4ccccc34)nc12	–	3.55 µM [rising, partial curve]
COc1ccccc1Oc1nc(-c2ccccc2)cc(C)c1S(C)(=O)=O	31.6 µM [rising, single point]	31.6 µM [rising, single point]
CCCc1cc(-c2n[nH]c(=S)n2CC)c2ccccc2n1	17.8 µM [rising, single point]	–
COc1ccc(S(=O)(=O)Nc2ccc3c(c2)OCCO3)cc1Cl	–	22.4 µM [rising, single point]
O=S(=O)(NCc1ccc2c(c1)OCO2)c1ccc2c(c1)oc1ccccc12	17.8 µM [rising, single point]	25.1 µM [rising, partial curve]
COc1ccc(NC(=O)Cn2c(=O)c3cccn3c3ccccc32)cc1Cl	0.0141 µM [rising, full curve, poor fit]	–
CCCNc1c(NC(C)=O)c(=O)oc2ccccc12	–	35.5 µM [rising, single point]
O=C(Nc1ccc(-c2nc3ccccc3o2)c(O)c1)c1ccccc1	1.12 µM [rising, partial curve]	–
O=C(/C=C/c1ccc(F)cc1)NCCc1ccc2c(c1)OCCO2	–	0.316 µM [rising, single point]
Cc1cc(C)cc(NC(=O)CN2CCCN(S(=O)(=O)c3ccc(Br)s3)CC2)c1	17.8 µM [rising, single point]	–
CC1CCN(c2nc(-c3ccncc3)nc3ccccc23)CC1	14.1 µM [rising, single point]	22.4 µM [rising, partial curve]
Cc1ccc(Cc2cnc(NC(=O)CN3CCOCC3)s2)cc1Cl	–	12.6 µM [rising, partial curve, poor fit]
CCCN1C(=O)/C(=C\C=C2/Sc3ccccc3N2CC)SC1=S	–	4.47 µM [falling, single point]
Cc1ccc(CO/N=C/C2=C(Cl)c3ccccc3CC2)cc1	12.6 µM [rising, single point]	–
N#C/C(=C\c1coc2ccccc2c1=O)C(N)=S	–	35.5 µM [falling, partial curve, poor fit]
Cc1cccc2cc(CN(CC3CCCO3)C(=S)NCc3ccco3)c(=O)[nH]c12 (configuration not stated)	12.6 µM [falling, partial curve]	12.6 µM [falling, partial curve]
O=C(Oc1cccc(/C=N/Nc2nc(Nc3ccccc3)nc(N3CCOCC3)n2)c1)c1ccco1	1.58 µM [falling, partial curve]	31.6 µM [rising, single point]
COc1ccc2[nH]c(=O)c(CN(C(=O)c3ccco3)C(C)C)cc2c1	–	0.316 µM [falling, full curve, poor fit]
[O-][N+]1=c2ccc(Nc3ccccc3)cc2=NC12CCCCC2	10 µM [falling, partial curve]	11.2 µM [falling, partial curve]
CC(C)=CCC/C(C)=C/CC/C(C)=C/CSc1ccccc1C(=O)O	0.00501 µM [falling, full curve, poor fit]	0.00398 µM [falling, full curve, poor fit]
COc1ccc(/C=N/Nc2nnc(Cc3ccc(OC)c(OC)c3)c(=O)[nH]2)cc1OC	35.5 µM [falling, single point]	35.5 µM [falling, single point]
O=C(Nc1ccccn1)c1c(O)c2cccc3c2n(c1=O)CCC3	–	0.0112 µM [falling, full curve, poor fit]

Of the compounds above, 2 contain an aryl thioether with sulfur outside any ring.
Structure (SMILES)	AC50 [1]	AC50 [2]
COC(=O)c1ccc(Sc2ccc(Cl)cc2)c(N)c1	12.6 µM [rising, single point]	17.8 µM [rising, single point]
CC(C)=CCC/C(C)=C/CC/C(C)=C/CSc1ccccc1C(=O)O	0.00501 µM [falling, full curve, poor fit]	0.00398 µM [falling, full curve, poor fit]

Next part

Structure (SMILES)	AC50 [1]	AC50 [2]
C/C(CC1CC2=C(CC1(C)C)C(C)(C)CCC2)=N\NC(N)=S (configuration not stated)	31.6 µM [falling, single point]	11.2 µM [falling, partial curve, poor fit]
COc1cc(CCC(=O)Nc2ccc(C)c(S(=O)(=O)N(C)C)c2)cc(OC)c1OC	8.91 µM [rising, partial curve]	12.6 µM [rising, partial curve]
O=C(Nc1nc2ccccc2s1)c1ccc(N2CCCCC2)c([N+](=O)[O-])c1	–	12.6 µM [rising, partial curve]
Cc1noc(COc2ccccc2OCc2onc(C)c2Cl)c1Cl	–	35.5 µM [rising, single point]
O=C(Oc1c(Cl)cc(Cl)c2cccnc12)c1ccco1	–	10 µM [rising, partial curve]
Cc1ccc(C2CC2C(=O)NNC(=S)Nc2cccc(C)c2)cc1 (configuration not stated)	12.6 µM [rising, partial curve]	25.1 µM [rising, single point]
CC(=O)Nc1ccc(C)c([N+](=O)[O-])c1	8.91 µM [rising, partial curve]	–
CC1=C(C(=O)Nc2ccccc2)C(c2cc(CN3CCOCC3)cs2)C2=C(CCCC2=O)N1 (configuration not stated)	3.55 µM [rising, full curve, poor fit]	–
O=C(NCCc1nc2ccccc2[nH]1)/C(=C/c1ccc2c(c1)OCO2)NC(=O)c1ccc(Cl)cc1Cl	–	28.2 µM [rising, single point]
CCOc1ccc(Cl)cc1CNCCCSc1nnnn1C	–	0.00316 µM [falling, full curve, poor fit]
Cc1ccc(NC(=O)c2ccc(S(=O)(=O)N3CCC(C)CC3)cc2)cc1	2.51 µM [falling, full curve, poor fit]	1.58 µM [falling, full curve, poor fit]
N#CCCN(C(=O)COc1ccc(F)cc1Br)c1ccccc1F	–	0.0112 µM [rising, full curve, poor fit]
COc1ccc(-n2cnnc2SCC(=O)Nc2cc(S(=O)(=O)N3CCCCC3)ccc2C)cc1	–	14.1 µM [rising, single point]
COc1ccc(NC(=O)c2ccc(-c3ccc(-c4noc(C)n4)cc3C)cc2)cc1N1CCN(C)CC1	12.6 µM [falling, partial curve, poor fit]	11.2 µM [falling, partial curve]
O=C(COC(=O)c1cc(S(=O)(=O)Nc2ccccc2Cl)ccc1O)Nc1nc2ccccc2s1	10 µM [falling, single point]	–
Cn1cnc([N+](=O)[O-])c1Oc1cccc(O)c1	–	31.6 µM [rising, single point]
O=C(CSc1cccc[n+]1[O-])N1CCc2ccccc21	0.00447 µM [falling, full curve]	–
O=C(COc1cccc(F)c1)N1c2ccccc2Sc2ccccc21	12.6 µM [rising, single point]	14.1 µM [rising, single point]
O=c1c(Br)c(Br)cnn1-c1ccccc1	11.2 µM [falling, partial curve]	3.16 µM [rising, partial curve]
COC(=O)c1sccc1NC(=O)Cc1ccc(Br)cc1	0.00316 µM [falling, full curve, poor fit]	0.0112 µM [falling, full curve, poor fit]
CCOC(=O)C(C)N1C(=O)S/C(=C/c2cc(C)n(-c3ccccn3)c2C)C1=O (configuration not stated)	–	20 µM [rising, single point]
Cc1cc(N2CCN(C(=O)c3ccco3)CC2)nc(-c2ccccc2)n1	35.5 µM [rising, single point]	14.1 µM [rising, single point]
CCCCNc1ccc(C(=O)OCCN(C)C)cc1	8.91 µM [falling, single point] and 0.891 nM [falling, full curve, poor fit]	12.6 µM [falling, single point] and 3.98 µM [rising, full curve, poor fit]
CCN1CCN(C(c2ccc(OC)cc2)c2nnnn2Cc2ccc3c(c2)OCO3)CC1 (configuration not stated)	0.0224 µM [rising, full curve, poor fit]	–
O=[N+]([O-])c1ccccc1S(=O)(=O)NCc1ccc(F)cc1	0.00447 µM [rising, full curve, poor fit]	0.00794 µM [rising, full curve, poor fit]
O=C(Nc1ccc(Cl)cc1Cl)c1cc(S(=O)(=O)N2CCCCCC2)ccc1F	0.251 µM [rising, full curve, poor fit]	–
COc1ccc(CCNC(=O)c2cc(-c3ccco3)on2)cc1OC	5.62 µM [falling, single point]	0.0794 µM [falling, full curve, poor fit]

Already shown: an excerpt of the list.
Structure (SMILES)	AC50 [1]	AC50 [2]
Cc1ccc(NC(=O)c2ccc(S(=O)(=O)N3CCC(C)CC3)cc2)cc1	2.51 µM [falling, full curve, poor fit]	1.58 µM [falling, full curve, poor fit]
N#CCCN(C(=O)COc1ccc(F)cc1Br)c1ccccc1F	–	0.0112 µM [rising, full curve, poor fit]
